# Assay results reported in US20040086901A1, “Database for analyzing gene function and method of analyzing gene function by dspa” (priority 2000, published 2004).
# Some results come without the dose or concentration used.
# Tests used:
# Format in all cases: cell-based
# p27-3 cells = test: DSPA drug sensitivity pattern, p27-3 cells; settings: drug sensitivity pattern of F25 + substance vs p27-3
# TERT-DN cells = test: DSPA drug sensitivity pattern, TERT-DN cells; settings: drug sensitivity pattern of F25 + substance vs TERT-DN
# cells expressing CD44/3s = test: DSPA drug sensitivity pattern, CD44/3s cells; settings: drug sensitivity pattern of F25 + substance vs CD44/3s
# cells expressing per-1 = test: DSPA drug sensitivity pattern, per-1 cells; settings: drug sensitivity pattern of F25 + substance vs per-1
# FBRCA1-13 cells = test: DSPA drug sensitivity pattern, FBRCA1-13 cells; settings: drug sensitivity pattern of F25 + substance vs FBRCA1-13
# [1] = test system: cells expressing Jagged-1; test: DSPA drug sensitivity pattern, Jagged-1 cells; settings: drug sensitivity pattern of F25 + substance vs Jagged-1
# cells expressing p94-WT = test: DSPA drug sensitivity pattern, p94-WT cells; settings: drug sensitivity pattern of F25 + substance vs p94-WT
# Bcl-2 cells = test: DSPA drug sensitivity pattern, Bcl-2 cells; settings: drug sensitivity pattern of F25 + substance vs Bcl-2
# Cyclin D1-11 cells = test: DSPA drug sensitivity pattern, Cyclin D1-11 cells; settings: drug sensitivity pattern of F25 + substance vs Cyclin D1-
# cells expressing CD44/3E = test: DSPA drug sensitivity pattern, CD44/3E cells; settings: drug sensitivity pattern of F25 + substance vs CD44/3E
# Max cells = test: DSPA drug sensitivity pattern, Max cells; settings: drug sensitivity pattern of F25 + substance vs Max
# MSSP-10 cells = test: DSPA drug sensitivity pattern, MSSP-10 cells; settings: drug sensitivity pattern of F25 + substance vs MSSP-10
# per2 cells = test: DSPA drug sensitivity pattern, per2 cells; settings: drug sensitivity pattern of F25 + substance vs per2
# STAT2-4 cells = test: DSPA drug sensitivity pattern, STAT2-4 cells; settings: drug sensitivity pattern of F25 + substance vs STAT2-4
# [2] = test system: cells expressing CD44/H-CAM; test: DSPA drug sensitivity pattern, CD44/H-CAM cells; settings: drug sensitivity pattern of F25 + substance vs CD44/H-CAM
# PTEN-G129R cells = test: DSPA drug sensitivity pattern, PTEN-G129R cells; settings: drug sensitivity pattern of F25 + substance vs PTEN-G129R
# FHO-6 cells = test: DSPA drug sensitivity pattern, FHO-6 cells; settings: drug sensitivity pattern of F25 + substance vs FHO-6
# FMDM2hwt-6 cells = test: DSPA drug sensitivity pattern, FMDM2hwt-6 cells; settings: drug sensitivity pattern of F25 + substance vs FMDM2hwt-6
# MM1 cells = test: DSPA drug sensitivity pattern, MM1 cells; settings: drug sensitivity pattern of F25 + substance vs MM1
# per3 cells = test: DSPA drug sensitivity pattern, per3 cells; settings: drug sensitivity pattern of F25 + substance vs per3
# AMY1 cells = test: DSPA drug sensitivity pattern, AMY1 cells; settings: drug sensitivity pattern of F25 + substance vs AMY1
# FAPP-4 cells = test: DSPA drug sensitivity pattern, FAPP-4 cells; settings: drug sensitivity pattern of F25 + substance vs FAPP-4
# Bad-22 cells = test: DSPA drug sensitivity pattern, Bad-22 cells; settings: drug sensitivity pattern of F25 + substance vs Bad-22
smiles,measurement,setting,value
C=CCN(CC(=O)OCC)C(=O)/C(C)=C/c1ccc(C(=O)Oc2ccc(C(=N)N)cc2)cc1.CS(=O)(=O)O [ONO3403],correlation coefficient (r) with p27-3,p27-3 cells,0.40
same,correlation coefficient (r) with TERT-DN,TERT-DN cells,0.08
same,correlation coefficient (r) with CD44/3s,cells expressing CD44/3s,0.15
same,correlation coefficient (r) with per-1,cells expressing per-1,0.04
same,correlation coefficient (r) with FBRCA1-13,FBRCA1-13 cells,0.06
same,correlation coefficient (r) with Jagged-1,[1],−0.02
same,correlation coefficient (r) with p94-WT,cells expressing p94-WT,0.48
same,correlation coefficient (r) with Bcl-2,Bcl-2 cells,0.35
same,correlation coefficient (r) with Cyclin D1-,Cyclin D1-11 cells,−0.25
same,correlation coefficient (r) with CD44/3E,cells expressing CD44/3E,0.02
same,correlation coefficient (r) with Max,Max cells,0.20
same,correlation coefficient (r) with MSSP-10,MSSP-10 cells,−0.05
same,correlation coefficient (r) with per2,per2 cells,0.17
same,correlation coefficient (r) with STAT2-4,STAT2-4 cells,0.05
same,correlation coefficient (r) with CD44/H-CAM,[2],0.06
same,correlation coefficient (r) with PTEN-G129R,PTEN-G129R cells,0.03
same,correlation coefficient (r) with FHO-6,FHO-6 cells,0.33
same,correlation coefficient (r) with FMDM2hwt-6,FMDM2hwt-6 cells,−0.22
same,correlation coefficient (r) with MM1,MM1 cells,0.29
same,correlation coefficient (r) with per3,per3 cells,0.14
same,correlation coefficient (r) with AMY1,AMY1 cells,0.28
same,correlation coefficient (r) with FAPP-4,FAPP-4 cells,−0.32
same,correlation coefficient (r) with Bad-22,Bad-22 cells,0.18
